No constants are given. Whether binding was seen depends on the method and setting.
target: T1, chimeric Ig-EPOR protein (human; murine, UniProt P19235 25-250); experiment: EPOR-specific magnetic bead phage ELISA
T1 construct: extracellular domain; Secreted from COS-7 cells transfected with pcDNA3-IgG1-EPOR; major species about 59 kDa; also called IgG-EPOR; chimeric receptor; not shown: hinge region, CH2 and CH3 domains of the murine IgG1 heavy chain
T1 sequence (looked up): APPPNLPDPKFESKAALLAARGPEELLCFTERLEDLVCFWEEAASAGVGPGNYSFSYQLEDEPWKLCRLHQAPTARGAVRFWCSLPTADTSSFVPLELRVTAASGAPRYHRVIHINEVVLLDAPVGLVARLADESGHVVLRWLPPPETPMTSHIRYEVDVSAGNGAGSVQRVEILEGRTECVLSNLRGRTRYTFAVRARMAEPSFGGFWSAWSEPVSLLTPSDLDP

Binder	binding
GLNICRPGWVGHCNDSLRDEYATNPRTPGPLSYNLQPT (not shown: M13 phage pIII coat protein) [phage clone N8]	no binding (tested: <0.1 (relative affinity))
DVEVGRRACVGYCQEFLRDEYTATPSYPDKHSNYLNPP (not shown: M13 phage pIII coat protein) [phage clone N12]	no binding (tested: <0.1 (relative affinity))
RLEDGDEGRVWHSSDLLSDEYASTPSYPLTPNYYEYPP (not shown: M13 phage pIII coat protein) [phage clone N1]	no binding (tested: <0.1 (relative affinity))
DFEGSLREWDGDWPEWLRDEYARPSYPNPHKANQKPP (not shown: M13 phage pIII coat protein) [phage clone N10]	no binding (tested: <0.1 (relative affinity))
EFVVWPRGWVGHCKGCRVDEYSGDPSNLEAQTHDMNFQ (not shown: M13 phage pIII coat protein) [phage clone N7]	no binding (tested: <0.1 (relative affinity))
DLNVGCPGYVGHCADWLGDEYPVHPNPEVPQTLNLKPH (not shown: M13 phage pIII coat protein) [phage clone N3]	no binding (tested: <0.1 (relative affinity))
ALDVGRWDGVGHCKGCLKDEYTTLDSKNNPQISQVSPT (not shown: M13 phage pIII coat protein) [phage clone N11]	no binding (tested: <0.1 (relative affinity))
GWAGCRSGGAGQCKEGAGDEYAENPSYPVPPRKHLNRL (not shown: M13 phage pIII coat protein) [phage clone N2]	no binding (tested: <0.1 (relative affinity))
DIAVCRGGCVGLCEEGLRDEYACNVKKPVPHSYKLNTP (not shown: M13 phage pIII coat protein) [phage clone N13]	no binding (tested: <0.1 (relative affinity))
EWVYSRQSWGGQWKDGVRDEYTMTPGDPVANKYSLMTP (not shown: M13 phage pIII coat protein) [phage clone N6]	no binding (tested: <0.1 (relative affinity))
SVDVCNQGGVGRCNDGLGDEYASKPSYQEAPRYNPNLR (not shown: M13 phage pIII coat protein) [phage clone N9]	no binding (tested: <0.1 (relative affinity))
NSDVTRRGWADHWREWNWDEYASTPTHPASHSSYLNPP (not shown: M13 phage pIII coat protein) [phage clone N5]	no binding (tested: <0.1 (relative affinity))
ELDMLRGGGVGQSKESLRDEYDHKTSTPVPPNQKLPPP (not shown: M13 phage pIII coat protein) [phage clone N4]	no binding (tested: <0.1 (relative affinity))

From patent US6642353B1, “Peptide ligands for the erythropoietin receptor” (Chugai Seiyaku Kabushiki Kaisha, priority 2000, dated 2003)
